PubChem BioAssay AID1347075 (National Center for Advancing Translational Sciences (NCATS), 2019)
Out of some 400,000 compounds screened, about 5,500 (1.4%) were called active. The shares of active, inactive and inconclusive entries below differ from those in the screen. Calls come from the whole dose curve; as a rule, active = well fitted cell-killing curve with a large enough effect; inconclusive = small, poorly fitted or top-dose-only effect, or effect the other way; inactive = flat fitted curve, though single readings scatter. A potency beside an inconclusive call is a rough fit, not a confirmed value.
% is set by controls: 0 for no effect and ±100 for the full control effect; potency is the fitted concentration of half-maximal effect.

Assay: qHTS assay for MDR1-selective chemotherapeutics: Primary screen using the parental adenocarcinoma cell KB-3-1; note: nearly all actives have a fitted effect of over 60% in size
Conditions: KB-3-1 viability, CellTiter-Glo ATP luminescence, 72 h; activity change, negative = cytotoxic: at 46.1 µM (top of the series)
Summary of the method: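 Cytotoxicity measured as CellTiter-Glo luminescence after 72 h at 37 C. Compound titrations were pinned onto drug-naive KB-3-1 parental adenocarcinoma cells grown in DMEM with 10% FBS, and normalized data fitted to concentration-response curves.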
With `Cc1ccc(C)c(OCCCCn2ccnc2)c1` the “activity change, negative = cytotoxic” value was inactive: -12.4%. In the case of `OC(CN1CCN(c2ccccn2)CC1)Cn1c2ccc(Cl)cc2c2cc(Cl)ccc21` (stereo not given), the Potency is reported as inconclusive: 29.1 µM [cytotoxic, single point]. For `COc1ccccc1NC(c1ccc(Cl)cc1)c1nnc(-c2cccc(F)c2)o1` (stereo not given), the Potency was inconclusive: 18.4 µM [cytotoxic, single point]. With `CC(=O)Nc1ccc(S(=O)(=O)N2CCN(c3cccc(C)c3C)CC2)cc1` the Potency was inconclusive: 16.4 µM [cytotoxic, single point]. With `CCOc1cc(C(=O)Nc2cc(C(=O)OC)ccc2C)ccc1OCC(=O)N1CCOCC1` the “activity change, negative = cytotoxic” value was inactive: -0.431%. In the case of `Cc1ccc(OCc2cc(C(=O)NCc3ccc(OC(F)(F)F)cc3)no2)cn1`, the Potency is reported as inconclusive: 29.1 µM [cytotoxic, single point]. In the case of `COC(=O)CN1C(=S)N(c2ccc(Cl)cc2)C(=O)C1CC(=O)Nc1ccc(Cl)cc1` (stereo not given), the “activity change, negative = cytotoxic” value is reported as inactive: -9.71%. In the case of `CCOc1ccccc1CN1CCCC(C(=O)Nc2cccc(-n3cccn3)c2)C1` (stereo not given), the Potency is reported as inconclusive: 29.1 µM [cytotoxic, single point]. In the case of `Cc1cc(NCc2ccccc2)c2ccccc2n1`, the Potency is reported as inconclusive: 14.6 µM [cytotoxic, partial curve]. In the case of `O=C(Nc1ccc2oc(=O)ccc2c1)c1ccc(-c2cccc([N+](=O)[O-])c2)o1`, the Potency is reported as active: 25.9 µM. In the case of `CCOc1ccc(-c2nonc2NC(=O)c2oc3ccc(F)cc3c2C)cc1`, the Potency is reported as inconclusive: 1.64 µM [cytotoxic, partial curve, poor fit]. In the case of `COc1ccc(/C=C/C(=O)c2ccc(OC)cc2O)cc1`, the Potency is reported as inconclusive: 23.1 µM [cytotoxic, partial curve, poor fit]. For `O=C(Oc1ccc2c(c1)CCC2)N1CCOCC1`, the Potency was inconclusive: 29.1 µM [rising, single point]. In the case of `C=CCc1cccc(C2Nc3ccccc3C(=O)N2O)c1O` (stereo not given), the Potency is reported as inconclusive: 29.1 µM [cytotoxic, single point]. In the case of `COCCCNC(=O)c1ccc(Cn2c(=O)c3ccccc3n(CC(=O)NCc3ccco3)c2=O)cc1`, the Potency is reported as inconclusive: 29.1 µM [cytotoxic, single point]. In the case of `COC(=O)c1ccccc1NC(=O)C1=CC(c2ccc(C)cc2)=NS(=O)(=O)N1C`, the “activity change, negative = cytotoxic” value is reported as inactive: 6.43%. For `O=C(c1cc([N+](=O)[O-])ccc1N1CCCCC1)N1CCc2ccccc21`, the Potency was active: 5.8 µM. In the case of `CN1CCN(C2=Cc3ccccc3Sc3cc(F)ccc32)CC1`, the Potency is reported as inconclusive: 35.5 µM [cytotoxic, single point]. With `Cc1cccc(NC(=S)N(Cc2cccs2)Cc2cc3cc(C)cc(C)c3[nH]c2=O)c1` the Potency was inconclusive: 8.2 µM [cytotoxic, partial curve]. In the case of `CCn1c(/C=C/c2ccc(F)cc2)nc2ccccc2c1=O`, the Potency is reported as inconclusive: 29.1 µM [cytotoxic, single point]. In the case of `COc1ccc(-n2cc(CNCc3cnc4ccccn34)c(-c3cccc(F)c3)n2)cc1`, the “activity change, negative = cytotoxic” value is reported as inactive: 12.2%. With `O=[N+]([O-])c1cc(/C=N/NC(=S)Nc2ccccc2Cl)ccc1Cl` the Potency was active: 18.4 µM. With `S=C(Nc1cccc2ccccc12)NC1CCCCC1` the activity change, negative = cytotoxic was inconclusive: 39.2%. For `O=C(NC1CC1)c1cccc(Nc2ccc(-c3ccc4c(c3)OCCO4)nn2)c1`, the Potency was inconclusive: 29.1 µM [cytotoxic, single point]. For `O=C(CCNC(=O)c1ccc(Br)cc1)Nc1ccccc1N1CCCC1`, the “activity change, negative = cytotoxic” value was inactive: -0.951%. For `c1ccc(-c2nnc(SCc3nc4ccccc4[nH]3)o2)cc1`, the Potency was inconclusive: 32.6 µM [cytotoxic, single point]. In the case of `CCN(CC)CC#CCOC(=O)C(O)(c1ccccc1)C1CCCCC1` (stereo not given), the activity change, negative = cytotoxic is reported as inconclusive: -32.9% [cytotoxic]. With `COc1ccccc1N(CC(=O)NCCSCc1ccc(C)cc1)S(=O)(=O)c1ccccc1` the Potency was inconclusive: 25.9 µM [cytotoxic, single point]. With `O=C(CSc1nnc(-c2cccc(Br)c2)o1)NCC1CCCO1` (stereo not given) the Potency was inconclusive: 32.6 µM [cytotoxic, partial curve, poor fit]. With `COc1ccc(CNC(=O)c2cc(COc3c(F)cccc3F)on2)cc1OC` the activity change, negative = cytotoxic was inconclusive: -22.1%. With `CCCCc1c(C)c(C#N)c2[nH]c3ccccc3n2c1=O` the Potency was inconclusive: 23.1 µM [cytotoxic, single point]. In the case of `O=C(NC1CCCCCC1)c1ccc(OCC2CCCO2)cc1` (stereo not given), the activity change, negative = cytotoxic is reported as inconclusive: -6.09%. With `COC(=O)c1cc(=O)nc(NN=C2c3ccccc3-c3ccccc32)s1` the “activity change, negative = cytotoxic” value was inactive: -4.31%. For `Oc1ccc(CNc2ccc(F)cc2)c2cccnc12`, the Potency was inconclusive: 29.1 µM [cytotoxic, single point]. With `Cc1nc(C(C)NC(=O)c2cc(COc3ccc(F)c(F)c3)on2)cs1` (stereo not given) the Potency was inconclusive: 18.4 µM [rising, partial curve, poor fit]. In the case of `Cc1c(-c2ccc(F)cc2)nc(N)c(C#N)c1-c1ccco1`, the “activity change, negative = cytotoxic” value is reported as inactive: -4.14%. In the case of `Cc1ccnc(SCC(=O)c2cccc([N+](=O)[O-])c2)n1`, the Potency is reported as inconclusive: 8.2 µM [rising, partial curve]. With `Cc1ccc2c(c1)CCCN2C(=O)CCc1nc2ccccc2c(=O)[nH]1` the Potency was inconclusive: 1.3 µM [cytotoxic, full curve, poor fit]. For `C[C@@]12C(=O)OC(=O)[C@]1(C)C1CCC2O1`, the Potency was inconclusive: 1.16 µM [cytotoxic, full curve, poor fit]. With `Cc1cccc(-c2nc3c(c(SCC(=O)N4CCOCC4)n2)Cc2c(CO)cnc(C)c2O3)c1` the Potency was active: 14.6 µM. For `CC(OC(=O)c1ccc2c(=O)n3c(nc2c1)CCCCC3)C(N)=O` (stereo not given), the Potency was inconclusive: 29.1 µM [rising, single point]. With `CCCCN(C=O)c1c(CC)nc2c(OCCOc3ccc(F)cc3)cccn12` the “activity change, negative = cytotoxic” value was inactive: -0.319%. In the case of `Clc1ccc2c(NCCNC3CCCCC3)ccnc2c1`, the Potency is reported as inconclusive: 29.1 µM [cytotoxic, single point]. For `COc1ccc(NC(=O)C(c2ccc(C)cc2)N(C)C(=O)/C=C\c2ccc3c(c2)OCO3)cc1` (stereo not given), the “activity change, negative = cytotoxic” value was inactive: -14%. For `O=C(NCCc1c[nH]c2ccccc12)c1cncc(Br)c1`, the Potency was inconclusive: 8.2 µM [rising, partial curve].
